Here are results for 14 molecules from article PMC10008703.

Sequences of proteins named here, by UniProt entry; tags and fusion partners are left off.
UniProt Q16186: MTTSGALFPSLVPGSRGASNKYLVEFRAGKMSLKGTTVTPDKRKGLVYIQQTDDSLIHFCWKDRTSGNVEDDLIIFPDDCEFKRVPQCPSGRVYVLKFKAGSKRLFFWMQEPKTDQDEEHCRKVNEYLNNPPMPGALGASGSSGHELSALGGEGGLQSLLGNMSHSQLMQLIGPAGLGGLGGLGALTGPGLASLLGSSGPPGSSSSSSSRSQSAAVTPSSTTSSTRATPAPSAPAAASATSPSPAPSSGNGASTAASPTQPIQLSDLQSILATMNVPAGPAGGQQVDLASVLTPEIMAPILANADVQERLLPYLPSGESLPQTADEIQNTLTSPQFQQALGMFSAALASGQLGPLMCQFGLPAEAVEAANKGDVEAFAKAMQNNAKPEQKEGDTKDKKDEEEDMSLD
UniProt Q9UIK4: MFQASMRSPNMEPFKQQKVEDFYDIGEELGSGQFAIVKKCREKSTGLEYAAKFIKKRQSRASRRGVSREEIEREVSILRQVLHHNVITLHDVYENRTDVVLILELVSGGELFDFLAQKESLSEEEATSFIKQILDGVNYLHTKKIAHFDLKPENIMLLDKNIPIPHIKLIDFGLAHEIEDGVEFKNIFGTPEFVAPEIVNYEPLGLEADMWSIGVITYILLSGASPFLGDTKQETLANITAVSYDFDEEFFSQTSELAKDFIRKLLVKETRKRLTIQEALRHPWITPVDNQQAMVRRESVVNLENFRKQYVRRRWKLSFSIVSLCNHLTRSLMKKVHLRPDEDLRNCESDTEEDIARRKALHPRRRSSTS
UniProt P15104: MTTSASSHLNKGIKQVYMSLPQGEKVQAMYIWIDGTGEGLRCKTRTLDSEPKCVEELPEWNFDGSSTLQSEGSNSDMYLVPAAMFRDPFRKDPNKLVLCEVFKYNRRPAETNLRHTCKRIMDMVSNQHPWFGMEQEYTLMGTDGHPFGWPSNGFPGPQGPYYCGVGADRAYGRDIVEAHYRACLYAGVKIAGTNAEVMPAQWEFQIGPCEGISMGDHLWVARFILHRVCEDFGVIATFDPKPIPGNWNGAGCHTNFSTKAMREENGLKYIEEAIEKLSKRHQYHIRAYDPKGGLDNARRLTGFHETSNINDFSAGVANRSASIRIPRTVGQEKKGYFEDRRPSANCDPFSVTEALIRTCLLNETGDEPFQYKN
UniProt P78559: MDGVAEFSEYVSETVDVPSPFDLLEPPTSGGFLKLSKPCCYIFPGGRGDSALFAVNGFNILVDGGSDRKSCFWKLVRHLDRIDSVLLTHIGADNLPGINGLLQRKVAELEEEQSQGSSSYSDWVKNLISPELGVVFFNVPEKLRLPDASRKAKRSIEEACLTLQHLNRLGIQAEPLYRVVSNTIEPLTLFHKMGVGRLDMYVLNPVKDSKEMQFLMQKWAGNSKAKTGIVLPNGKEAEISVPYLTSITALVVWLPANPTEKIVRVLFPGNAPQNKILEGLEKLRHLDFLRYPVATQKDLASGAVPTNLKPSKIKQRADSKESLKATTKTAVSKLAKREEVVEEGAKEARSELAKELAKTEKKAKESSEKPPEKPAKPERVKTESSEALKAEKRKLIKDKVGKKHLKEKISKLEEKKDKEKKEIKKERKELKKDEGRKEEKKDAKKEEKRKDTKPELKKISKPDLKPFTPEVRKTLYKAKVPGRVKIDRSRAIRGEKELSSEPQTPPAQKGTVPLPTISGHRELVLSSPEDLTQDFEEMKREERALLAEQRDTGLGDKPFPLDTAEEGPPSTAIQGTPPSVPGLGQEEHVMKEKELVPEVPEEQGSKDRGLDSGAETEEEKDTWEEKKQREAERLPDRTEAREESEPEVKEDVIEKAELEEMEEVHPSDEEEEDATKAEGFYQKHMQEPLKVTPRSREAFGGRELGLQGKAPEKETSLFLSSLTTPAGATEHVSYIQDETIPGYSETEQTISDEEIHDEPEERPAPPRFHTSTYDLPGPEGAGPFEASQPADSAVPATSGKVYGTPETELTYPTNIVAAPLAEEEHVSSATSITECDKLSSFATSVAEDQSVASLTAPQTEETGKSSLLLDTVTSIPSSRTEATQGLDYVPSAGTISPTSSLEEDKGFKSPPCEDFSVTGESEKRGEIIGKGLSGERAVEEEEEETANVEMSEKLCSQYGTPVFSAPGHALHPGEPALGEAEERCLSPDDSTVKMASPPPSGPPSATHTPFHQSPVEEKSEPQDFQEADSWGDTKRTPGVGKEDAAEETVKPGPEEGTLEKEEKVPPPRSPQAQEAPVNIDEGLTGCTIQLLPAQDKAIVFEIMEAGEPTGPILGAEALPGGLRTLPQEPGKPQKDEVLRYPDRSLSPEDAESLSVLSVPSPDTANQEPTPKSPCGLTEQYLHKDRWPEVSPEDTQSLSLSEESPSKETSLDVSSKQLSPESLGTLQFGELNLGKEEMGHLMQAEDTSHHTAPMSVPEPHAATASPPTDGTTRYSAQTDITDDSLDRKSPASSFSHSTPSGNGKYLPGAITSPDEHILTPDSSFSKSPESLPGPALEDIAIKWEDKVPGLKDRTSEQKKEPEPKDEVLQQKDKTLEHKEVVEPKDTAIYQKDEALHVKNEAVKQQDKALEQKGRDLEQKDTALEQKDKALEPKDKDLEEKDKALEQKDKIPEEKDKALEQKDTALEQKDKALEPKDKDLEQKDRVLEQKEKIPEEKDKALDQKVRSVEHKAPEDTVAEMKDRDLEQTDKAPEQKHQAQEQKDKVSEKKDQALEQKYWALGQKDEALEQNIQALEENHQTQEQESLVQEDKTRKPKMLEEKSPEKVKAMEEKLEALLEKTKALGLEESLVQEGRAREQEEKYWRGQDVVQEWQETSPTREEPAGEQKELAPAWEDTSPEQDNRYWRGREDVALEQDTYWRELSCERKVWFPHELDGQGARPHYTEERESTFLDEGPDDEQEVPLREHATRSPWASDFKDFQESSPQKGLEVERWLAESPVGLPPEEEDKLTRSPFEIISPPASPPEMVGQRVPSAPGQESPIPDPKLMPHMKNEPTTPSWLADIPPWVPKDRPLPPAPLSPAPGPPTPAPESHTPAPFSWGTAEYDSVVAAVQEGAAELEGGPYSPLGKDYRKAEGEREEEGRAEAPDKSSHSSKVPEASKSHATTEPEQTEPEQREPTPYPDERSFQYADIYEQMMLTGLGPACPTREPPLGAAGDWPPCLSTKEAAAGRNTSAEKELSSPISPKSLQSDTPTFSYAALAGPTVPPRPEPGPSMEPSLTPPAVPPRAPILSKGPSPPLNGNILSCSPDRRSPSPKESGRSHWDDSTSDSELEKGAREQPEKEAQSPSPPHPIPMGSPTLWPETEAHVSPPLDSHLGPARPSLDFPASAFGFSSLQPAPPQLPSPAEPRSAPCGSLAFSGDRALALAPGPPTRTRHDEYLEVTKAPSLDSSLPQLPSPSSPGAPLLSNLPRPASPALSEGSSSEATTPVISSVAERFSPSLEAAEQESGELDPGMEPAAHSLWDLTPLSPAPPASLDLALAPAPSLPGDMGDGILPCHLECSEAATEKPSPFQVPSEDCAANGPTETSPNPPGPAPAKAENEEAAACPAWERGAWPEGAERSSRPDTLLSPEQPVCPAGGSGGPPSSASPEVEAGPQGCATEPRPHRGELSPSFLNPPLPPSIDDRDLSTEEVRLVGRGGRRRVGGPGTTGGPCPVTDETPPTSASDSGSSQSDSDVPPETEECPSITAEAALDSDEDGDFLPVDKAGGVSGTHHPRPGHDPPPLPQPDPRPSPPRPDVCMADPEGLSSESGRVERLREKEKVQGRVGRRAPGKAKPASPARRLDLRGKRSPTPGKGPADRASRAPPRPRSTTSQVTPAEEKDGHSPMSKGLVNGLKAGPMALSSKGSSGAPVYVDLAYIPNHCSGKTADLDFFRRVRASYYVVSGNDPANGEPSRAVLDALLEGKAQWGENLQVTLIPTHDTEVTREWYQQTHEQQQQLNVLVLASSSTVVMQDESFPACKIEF
UniProt P31350: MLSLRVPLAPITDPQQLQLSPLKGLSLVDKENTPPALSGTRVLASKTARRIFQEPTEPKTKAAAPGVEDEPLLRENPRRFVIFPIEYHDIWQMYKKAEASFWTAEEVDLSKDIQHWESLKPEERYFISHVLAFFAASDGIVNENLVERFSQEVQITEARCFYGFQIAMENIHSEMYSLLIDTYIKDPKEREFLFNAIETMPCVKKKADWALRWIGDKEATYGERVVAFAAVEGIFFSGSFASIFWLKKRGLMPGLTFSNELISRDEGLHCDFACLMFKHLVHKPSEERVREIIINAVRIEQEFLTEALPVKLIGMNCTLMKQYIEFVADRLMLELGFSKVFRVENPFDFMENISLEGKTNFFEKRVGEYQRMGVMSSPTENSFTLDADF
UniProt A6NHR9: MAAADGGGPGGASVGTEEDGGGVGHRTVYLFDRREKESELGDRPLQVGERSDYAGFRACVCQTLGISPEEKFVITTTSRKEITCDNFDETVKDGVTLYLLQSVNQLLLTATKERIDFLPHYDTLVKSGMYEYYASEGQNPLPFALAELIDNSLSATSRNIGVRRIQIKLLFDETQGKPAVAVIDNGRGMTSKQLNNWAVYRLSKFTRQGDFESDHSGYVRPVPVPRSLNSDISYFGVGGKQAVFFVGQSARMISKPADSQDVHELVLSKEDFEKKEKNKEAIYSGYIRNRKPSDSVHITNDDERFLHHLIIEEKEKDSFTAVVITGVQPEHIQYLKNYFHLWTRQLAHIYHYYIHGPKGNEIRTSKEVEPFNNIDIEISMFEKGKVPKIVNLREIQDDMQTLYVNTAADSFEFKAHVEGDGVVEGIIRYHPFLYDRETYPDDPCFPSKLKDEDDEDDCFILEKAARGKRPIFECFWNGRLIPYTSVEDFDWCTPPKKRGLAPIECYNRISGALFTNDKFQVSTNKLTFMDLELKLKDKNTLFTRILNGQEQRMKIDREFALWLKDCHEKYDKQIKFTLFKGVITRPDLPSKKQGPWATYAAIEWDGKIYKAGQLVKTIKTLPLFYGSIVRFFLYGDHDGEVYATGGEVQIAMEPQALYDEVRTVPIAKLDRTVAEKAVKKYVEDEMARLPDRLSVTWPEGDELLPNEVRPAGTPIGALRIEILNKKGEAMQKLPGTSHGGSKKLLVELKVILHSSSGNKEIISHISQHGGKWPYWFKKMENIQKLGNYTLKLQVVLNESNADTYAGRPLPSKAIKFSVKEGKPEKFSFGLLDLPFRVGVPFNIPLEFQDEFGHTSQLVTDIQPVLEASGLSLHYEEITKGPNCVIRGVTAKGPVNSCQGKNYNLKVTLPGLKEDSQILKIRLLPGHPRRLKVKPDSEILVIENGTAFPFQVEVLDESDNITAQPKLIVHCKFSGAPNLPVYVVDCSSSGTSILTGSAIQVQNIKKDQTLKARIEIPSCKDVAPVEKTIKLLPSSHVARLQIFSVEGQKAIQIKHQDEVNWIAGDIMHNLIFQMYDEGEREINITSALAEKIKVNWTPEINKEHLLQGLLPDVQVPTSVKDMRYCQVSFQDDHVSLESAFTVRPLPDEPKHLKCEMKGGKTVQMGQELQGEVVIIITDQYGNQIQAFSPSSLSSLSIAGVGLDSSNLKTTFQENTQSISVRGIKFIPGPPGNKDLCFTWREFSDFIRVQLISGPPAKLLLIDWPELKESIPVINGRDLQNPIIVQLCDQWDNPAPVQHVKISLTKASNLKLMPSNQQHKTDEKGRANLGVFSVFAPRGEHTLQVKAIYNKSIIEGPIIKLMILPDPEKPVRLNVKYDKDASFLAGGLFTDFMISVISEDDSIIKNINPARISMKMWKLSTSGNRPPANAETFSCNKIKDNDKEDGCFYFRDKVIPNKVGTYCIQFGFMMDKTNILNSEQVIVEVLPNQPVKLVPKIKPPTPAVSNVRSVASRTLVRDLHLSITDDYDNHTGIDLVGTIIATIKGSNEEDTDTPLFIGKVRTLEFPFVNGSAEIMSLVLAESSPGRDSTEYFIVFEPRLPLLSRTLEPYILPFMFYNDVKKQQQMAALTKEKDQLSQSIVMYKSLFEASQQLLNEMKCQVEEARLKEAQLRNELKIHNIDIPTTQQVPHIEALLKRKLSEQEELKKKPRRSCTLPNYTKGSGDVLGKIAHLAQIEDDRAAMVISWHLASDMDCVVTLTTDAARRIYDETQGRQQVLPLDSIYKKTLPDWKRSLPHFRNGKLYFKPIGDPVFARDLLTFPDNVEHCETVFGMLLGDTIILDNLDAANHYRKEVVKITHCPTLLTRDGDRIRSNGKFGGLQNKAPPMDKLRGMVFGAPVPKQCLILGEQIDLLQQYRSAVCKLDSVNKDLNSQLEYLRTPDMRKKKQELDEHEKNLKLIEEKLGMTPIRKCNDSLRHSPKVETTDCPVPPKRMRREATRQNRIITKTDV

These are yes or no findings as the source states them, for the method shown. Binding seen in cells or lysates may run through a third protein. Here binding means that the protein was enriched with, or labelled near, the bait; the list need not be complete.

The assay has as its target T1, RalA (human (endogenous in K562)) (UniProt P11233).
T1 sequence: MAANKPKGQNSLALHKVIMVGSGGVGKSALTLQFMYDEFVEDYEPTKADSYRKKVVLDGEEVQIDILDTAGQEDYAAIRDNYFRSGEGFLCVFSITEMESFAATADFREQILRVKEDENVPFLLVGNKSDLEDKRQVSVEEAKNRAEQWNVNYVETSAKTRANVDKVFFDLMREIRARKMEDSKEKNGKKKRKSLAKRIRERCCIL
In words: affinity purification with mass spectrometry; K562 lysate (137 mM NaCl, 20 mM Tris, 2 mM CaCl2, 1% Triton X-100, 2 mM PMSF) probed overnight with RalA antibodies, protein A/G beads, washed thrice; eluted proteins identified by LC-MS (2D nano-HPLC-MS/MS).

With ADRM1 (from UniProt Q16186 1-407), the binding entry was “binds”. Then DAPK2 (from UniProt Q9UIK4 1-370), with “binds”; and FAT1 (from UniProt Q14517 22-4588), with “binds”.

As to FOS (from UniProt P01100 1-380), the binding entry is on record as “binds”.

Regarding GLUL (from UniProt P15104 1-373), the binding result is “binds”. Then MAP1A (from UniProt P78559 1-2803), with “binds”.

In the case of PTPRC (from UniProt P08575 26-1306), the binding entry is given as “binds”. The value for RABGAP1L (from UniProt Q5R372 1-815) was “binds”. The value for ROCK2 (from UniProt O75116 1-1388) was “binds”. For RRM2 (from UniProt P31350 1-389), the binding entry was “binds”. The value for SMCHD1 (from UniProt A6NHR9 1-2005) was “binds”.

B1: PITPNB (protein, UniProt P48739 1-271)
chain: MVLIKEFRVVLPCSVQEYQVGQLYSVAEASKNETGGGEGIEVLKNEPYEKDGEKGQYTHKIYHLKSKVPAFVRMIAPEGSLVFHEKAWNAYPYCRTIVTNEYMKDDFFIKIETWHKPDLGTLENVHGLDPNTWKTVEIVHIDIADRSQVEPADYKADEDPALFQSVKTKRGPLGPNWKKELANSPDCPQMCAYKLVTIKFKWWGLQSKVENFIQKQEKRIFTNFHRQLFCWIDKWIDLTMEDIRRMEDETQKELETMRKRGSVRGTSAADV
For the molecule B1, the binding result is “binds”.

B2: ADAR (protein, UniProt P55265 1-1226)
chain: MNPRQGYSLSGYYTHPFQGYEHRQLRYQQPGPGSSPSSFLLKQIEFLKGQLPEAPVIGKQTPSLPPSLPGLRPRFPVLLASSTRGRQVDIRGVPRGVHLRSQGLQRGFQHPSPRGRSLPQRGVDCLSSHFQELSIYQDQEQRILKFLEELGEGKATTAHDLSGKLGTPKKEINRVLYSLAKKGKLQKEAGTPPLWKIAVSTQAWNQHSGVVRPDGHSQGAPNSDPSLEPEDRNSTSVSEDLLEPFIAVSAQAWNQHSGVVRPDSHSQGSPNSDPGLEPEDSNSTSALEDPLEFLDMAEIKEKICDYLFNVSDSSALNLAKNIGLTKARDINAVLIDMERQGDVYRQGTTPPIWHLTDKKRERMQIKRNTNSVPETAPAAIPETKRNAEFLTCNIPTSNASNNMVTTEKVENGQEPVIKLENRQEARPEPARLKPPVHYNGPSKAGYVDFENGQWATDDIPDDLNSIRAAPGEFRAIMEMPSFYSHGLPRCSPYKKLTECQLKNPISGLLEYAQFASQTCEFNMIEQSGPPHEPRFKFQVVINGREFPPAEAGSKKVAKQDAAMKAMTILLEEAKAKDSGKSEESSHYSTEKESEKTAESQTPTPSATSFFSGKSPVTTLLECMHKLGNSCEFRLLSKEGPAHEPKFQYCVAVGAQTFPSVSAPSKKVAKQMAAEEAMKALHGEATNSMASDNQPEGMISESLDNLESMMPNKVRKIGELVRYLNTNPVGGLLEYARSHGFAAEFKLVDQSGPPHEPKFVYQAKVGGRWFPAVCAHSKKQGKQEAADAALRVLIGENEKAERMGFTEVTPVTGASLRRTMLLLSRSPEAQPKTLPLTGSTFHDQIAMLSHRCFNTLTNSFQPSLLGRKILAAIIMKKDSEDMGVVVSLGTGNRCVKGDSLSLKGETVNDCHAEIISRRGFIRFLYSELMKYNSQTAKDSIFEPAKGGEKLQIKKTVSFHLYISTAPCGDGALFDKSCSDRAMESTESRHYPVFENPKQGKLRTKVENGEGTIPVESSDIVPTWDGIRLGERLRTMSCSDKILRWNVLGLQGALLTHFLQPIYLKSVTLGYLFSQGHLTRAICCRVTRDGSAFEDGLRHPFIVNHPKVGRVSIYDSKRQSGKTKETSVNWCLADGYDLEILDGTRGTVDGPRNELSRVSKKNIFLLFKKLCSFRYRRDLLRLSYGEAKKAARDYETAKNYFKKGLKDMGYGNWISKPQEEKNFYLCPV
In the case of B2, the binding entry is on record as “binds”.

B3: PYCR2 (protein, UniProt Q96C36 1-320)
chain: MSVGFIGAGQLAYALARGFTAAGILSAHKIIASSPEMNLPTVSALRKMGVNLTRSNKETVKHSDVLFLAVKPHIIPFILDEIGADVQARHIVVSCAAGVTISSVEKKLMAFQPAPKVIRCMTNTPVVVQEGATVYATGTHALVEDGQLLEQLMSSVGFCTEVEEDLIDAVTGLSGSGPAYAFMALDALADGGVKMGLPRRLAIQLGAQALLGAAKMLLDSEQHPCQLKDNVCSPGGATIHALHFLESGGFRSLLINAVEASCIRTRELQSMADQEKISPAALKKTLLDRVKLESPTVSTLTPSSPGKLLTRSLALGGKKD
Consider B3, for which the binding entry is reported as “binds”.
